Test results from patent US20170166649A1 (MAX DELBR CK CENTRUM F R MOLEKULARE MEDIZIN IN DER …, published 2017).
No constants are given. Whether binding was seen depends on the method and setting. Some results given as binding are weak or reduced against the parent protein; the word gives no strength.

Legend:
[1] = molecular target: extracellular domain of cynomolgous BCMA (cynomolgus); experiment: ELISA (cynomolgous)
[2] = molecular target: extracellular domain of cynomolgous BCMA (cynomolgus); experiment: SPR (ProteOn), IgG amine-coupled to a GLH chip, cynoBCMA in the mobile phase; concentrations not printed [continued) B]
[3] = molecular target: extracellular domain of cynomolgous BCMA (cynomolgus); experiment: ELISA on plates coated with cynomolgus BCMA (1 ug/ml), % of max

Measured: binding

B1: chimeric antibody J22.9-xi (antibody, V domains shown)
VH: QVQLQQSGGGLVQPGGSLKLSCAASGIDFSRYWMSWVRRAPGKGLEWIGEINPDSSTINYAPSLKDKFIISRDNAKNTLYLQMSKVRSEDTALYYCASLYYDYGDAMDYWGQGTSVTVSS
VL: DIVMTQSQRFMTTSVGDRVSVTCKASQSVDSNVAWYQQKPRQSPKALIFSASLRFSGVPARFTGSGSGTDFTLTISNLQSEDLAEYFCQQYNNYPLTFGAGTKLELKR
notes: Full length IgG made in 293-6E cells
binds: all assays above
